Results as given in publication doi:10.1101/521369.
No constants are given. Whether binding was seen depends on the method and setting. In cells and extracts the contact can be indirect. These calls come from enrichment with a bait or labelling near it, and not all partners need be listed.

By UniProt entry, the sequences of proteins in these tests, tags left out.
UniProt Q5XI81: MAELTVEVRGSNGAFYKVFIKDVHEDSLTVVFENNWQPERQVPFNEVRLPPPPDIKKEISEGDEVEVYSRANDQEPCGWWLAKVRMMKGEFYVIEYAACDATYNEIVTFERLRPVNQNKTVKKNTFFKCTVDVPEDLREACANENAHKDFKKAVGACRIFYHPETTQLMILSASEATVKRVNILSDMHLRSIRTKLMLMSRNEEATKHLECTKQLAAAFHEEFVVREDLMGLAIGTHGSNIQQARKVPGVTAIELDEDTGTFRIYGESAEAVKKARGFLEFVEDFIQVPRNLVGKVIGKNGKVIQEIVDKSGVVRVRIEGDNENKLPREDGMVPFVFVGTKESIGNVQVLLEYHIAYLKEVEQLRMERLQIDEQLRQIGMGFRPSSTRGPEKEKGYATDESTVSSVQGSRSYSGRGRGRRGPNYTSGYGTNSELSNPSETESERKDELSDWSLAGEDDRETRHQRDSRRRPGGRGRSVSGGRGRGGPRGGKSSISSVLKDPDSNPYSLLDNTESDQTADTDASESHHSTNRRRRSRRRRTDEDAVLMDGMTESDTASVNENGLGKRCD
UniProt Q1JU68: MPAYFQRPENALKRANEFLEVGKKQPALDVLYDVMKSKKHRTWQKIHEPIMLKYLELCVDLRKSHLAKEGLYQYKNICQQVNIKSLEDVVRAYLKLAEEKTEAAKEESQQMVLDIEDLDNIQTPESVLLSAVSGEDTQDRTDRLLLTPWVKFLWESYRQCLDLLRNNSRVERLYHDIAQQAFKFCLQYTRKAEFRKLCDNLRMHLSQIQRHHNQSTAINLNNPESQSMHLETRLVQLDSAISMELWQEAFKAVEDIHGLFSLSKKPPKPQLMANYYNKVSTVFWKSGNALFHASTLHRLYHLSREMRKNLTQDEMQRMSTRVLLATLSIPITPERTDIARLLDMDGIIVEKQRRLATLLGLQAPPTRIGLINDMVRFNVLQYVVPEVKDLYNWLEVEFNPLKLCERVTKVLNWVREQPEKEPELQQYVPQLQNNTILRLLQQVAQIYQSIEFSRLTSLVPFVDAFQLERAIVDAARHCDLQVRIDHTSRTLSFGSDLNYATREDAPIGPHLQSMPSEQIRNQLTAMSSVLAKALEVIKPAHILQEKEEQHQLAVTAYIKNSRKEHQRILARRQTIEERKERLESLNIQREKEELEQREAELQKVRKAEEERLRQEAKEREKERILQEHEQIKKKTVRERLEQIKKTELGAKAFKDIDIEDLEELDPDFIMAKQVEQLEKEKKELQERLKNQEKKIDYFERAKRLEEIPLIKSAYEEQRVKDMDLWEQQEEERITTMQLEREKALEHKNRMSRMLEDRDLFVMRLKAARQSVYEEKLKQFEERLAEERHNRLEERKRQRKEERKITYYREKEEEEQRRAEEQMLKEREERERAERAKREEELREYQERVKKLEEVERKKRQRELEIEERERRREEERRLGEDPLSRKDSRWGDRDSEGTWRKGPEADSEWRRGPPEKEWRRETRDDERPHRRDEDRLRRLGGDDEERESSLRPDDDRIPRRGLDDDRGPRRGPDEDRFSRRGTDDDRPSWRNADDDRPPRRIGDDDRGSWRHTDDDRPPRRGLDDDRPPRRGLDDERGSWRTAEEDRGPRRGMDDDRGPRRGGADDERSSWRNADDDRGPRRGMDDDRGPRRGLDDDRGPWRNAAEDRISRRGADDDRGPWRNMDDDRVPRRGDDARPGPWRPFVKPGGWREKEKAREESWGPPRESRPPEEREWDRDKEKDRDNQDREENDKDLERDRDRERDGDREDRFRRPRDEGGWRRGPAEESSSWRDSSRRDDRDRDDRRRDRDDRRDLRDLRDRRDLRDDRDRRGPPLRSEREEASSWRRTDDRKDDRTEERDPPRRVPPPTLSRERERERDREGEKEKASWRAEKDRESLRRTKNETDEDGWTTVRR
UniProt Q4G061: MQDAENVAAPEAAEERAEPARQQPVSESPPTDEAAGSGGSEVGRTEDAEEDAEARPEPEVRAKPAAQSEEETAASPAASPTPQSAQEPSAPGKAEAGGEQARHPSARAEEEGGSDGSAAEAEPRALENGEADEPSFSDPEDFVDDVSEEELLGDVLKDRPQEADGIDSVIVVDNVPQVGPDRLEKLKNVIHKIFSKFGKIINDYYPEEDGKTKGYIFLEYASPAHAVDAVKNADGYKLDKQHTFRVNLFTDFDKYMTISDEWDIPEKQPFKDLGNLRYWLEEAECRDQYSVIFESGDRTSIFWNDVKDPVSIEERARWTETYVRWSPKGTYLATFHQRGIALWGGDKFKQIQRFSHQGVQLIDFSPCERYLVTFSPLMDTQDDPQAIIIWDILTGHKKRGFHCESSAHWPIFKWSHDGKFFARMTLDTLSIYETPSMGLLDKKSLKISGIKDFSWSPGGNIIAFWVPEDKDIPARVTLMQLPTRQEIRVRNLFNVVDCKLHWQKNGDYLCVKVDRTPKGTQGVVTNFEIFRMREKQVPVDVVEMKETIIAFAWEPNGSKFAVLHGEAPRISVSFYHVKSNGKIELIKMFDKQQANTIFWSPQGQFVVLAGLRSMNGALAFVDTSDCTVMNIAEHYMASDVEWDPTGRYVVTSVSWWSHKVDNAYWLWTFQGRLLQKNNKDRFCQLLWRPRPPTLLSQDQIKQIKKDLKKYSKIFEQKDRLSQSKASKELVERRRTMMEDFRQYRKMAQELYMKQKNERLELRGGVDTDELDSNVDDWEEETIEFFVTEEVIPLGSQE
UniProt B5DFC8: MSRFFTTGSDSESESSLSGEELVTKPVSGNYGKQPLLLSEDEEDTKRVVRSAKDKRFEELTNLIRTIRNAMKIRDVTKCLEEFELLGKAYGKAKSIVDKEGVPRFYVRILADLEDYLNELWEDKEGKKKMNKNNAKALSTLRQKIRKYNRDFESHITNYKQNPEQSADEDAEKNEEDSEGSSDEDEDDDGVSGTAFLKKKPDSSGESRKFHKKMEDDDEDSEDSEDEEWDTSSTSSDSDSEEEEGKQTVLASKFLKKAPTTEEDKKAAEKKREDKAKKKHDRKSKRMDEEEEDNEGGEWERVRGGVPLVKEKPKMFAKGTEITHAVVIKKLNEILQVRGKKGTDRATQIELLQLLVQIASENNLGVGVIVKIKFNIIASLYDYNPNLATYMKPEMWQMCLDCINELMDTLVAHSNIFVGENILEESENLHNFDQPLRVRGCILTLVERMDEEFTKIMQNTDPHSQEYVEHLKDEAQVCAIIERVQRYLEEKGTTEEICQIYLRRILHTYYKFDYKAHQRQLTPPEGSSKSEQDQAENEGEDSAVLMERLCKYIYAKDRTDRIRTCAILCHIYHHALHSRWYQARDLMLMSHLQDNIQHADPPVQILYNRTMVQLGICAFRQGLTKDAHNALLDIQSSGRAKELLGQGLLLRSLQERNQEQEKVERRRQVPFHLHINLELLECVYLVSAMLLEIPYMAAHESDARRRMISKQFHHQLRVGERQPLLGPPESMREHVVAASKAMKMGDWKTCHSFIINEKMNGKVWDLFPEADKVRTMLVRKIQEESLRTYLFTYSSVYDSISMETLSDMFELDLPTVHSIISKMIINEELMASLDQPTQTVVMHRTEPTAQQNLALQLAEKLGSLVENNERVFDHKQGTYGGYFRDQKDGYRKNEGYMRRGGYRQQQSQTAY
UniProt Q3T1J1: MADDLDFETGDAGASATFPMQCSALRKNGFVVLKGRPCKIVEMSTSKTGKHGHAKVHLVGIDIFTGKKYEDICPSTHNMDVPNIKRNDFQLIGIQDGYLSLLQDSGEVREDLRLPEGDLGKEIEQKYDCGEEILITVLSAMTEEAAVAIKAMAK
UniProt Q9QZ81: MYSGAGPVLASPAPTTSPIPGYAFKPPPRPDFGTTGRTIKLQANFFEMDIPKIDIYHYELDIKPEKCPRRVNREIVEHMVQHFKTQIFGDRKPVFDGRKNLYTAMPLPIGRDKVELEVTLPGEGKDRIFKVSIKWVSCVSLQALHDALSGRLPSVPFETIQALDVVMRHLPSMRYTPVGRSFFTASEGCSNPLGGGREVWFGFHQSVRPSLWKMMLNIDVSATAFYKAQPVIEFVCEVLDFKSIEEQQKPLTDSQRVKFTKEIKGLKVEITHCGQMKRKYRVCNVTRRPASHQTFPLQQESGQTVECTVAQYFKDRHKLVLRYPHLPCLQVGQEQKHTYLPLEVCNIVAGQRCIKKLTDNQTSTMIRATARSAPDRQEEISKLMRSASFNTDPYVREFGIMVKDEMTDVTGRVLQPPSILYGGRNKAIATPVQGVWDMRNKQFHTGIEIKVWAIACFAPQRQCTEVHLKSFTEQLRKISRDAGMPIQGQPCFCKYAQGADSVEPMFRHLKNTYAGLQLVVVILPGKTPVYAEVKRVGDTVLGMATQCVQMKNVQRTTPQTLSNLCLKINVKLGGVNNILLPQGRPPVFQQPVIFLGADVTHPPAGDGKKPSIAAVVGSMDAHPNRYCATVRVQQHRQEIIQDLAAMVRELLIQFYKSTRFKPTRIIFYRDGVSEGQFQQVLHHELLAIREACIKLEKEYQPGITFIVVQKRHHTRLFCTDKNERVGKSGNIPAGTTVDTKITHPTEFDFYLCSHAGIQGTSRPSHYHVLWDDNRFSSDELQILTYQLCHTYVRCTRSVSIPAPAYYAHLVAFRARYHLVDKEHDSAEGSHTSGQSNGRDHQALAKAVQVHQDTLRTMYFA

target: T1, phospholipase Cβ1 (PLCβ1), endogenous (rat (endogenous in PC12 and A10)) (UniProt P10687); assay: affinity purification with mass spectrometry
T1 sequence: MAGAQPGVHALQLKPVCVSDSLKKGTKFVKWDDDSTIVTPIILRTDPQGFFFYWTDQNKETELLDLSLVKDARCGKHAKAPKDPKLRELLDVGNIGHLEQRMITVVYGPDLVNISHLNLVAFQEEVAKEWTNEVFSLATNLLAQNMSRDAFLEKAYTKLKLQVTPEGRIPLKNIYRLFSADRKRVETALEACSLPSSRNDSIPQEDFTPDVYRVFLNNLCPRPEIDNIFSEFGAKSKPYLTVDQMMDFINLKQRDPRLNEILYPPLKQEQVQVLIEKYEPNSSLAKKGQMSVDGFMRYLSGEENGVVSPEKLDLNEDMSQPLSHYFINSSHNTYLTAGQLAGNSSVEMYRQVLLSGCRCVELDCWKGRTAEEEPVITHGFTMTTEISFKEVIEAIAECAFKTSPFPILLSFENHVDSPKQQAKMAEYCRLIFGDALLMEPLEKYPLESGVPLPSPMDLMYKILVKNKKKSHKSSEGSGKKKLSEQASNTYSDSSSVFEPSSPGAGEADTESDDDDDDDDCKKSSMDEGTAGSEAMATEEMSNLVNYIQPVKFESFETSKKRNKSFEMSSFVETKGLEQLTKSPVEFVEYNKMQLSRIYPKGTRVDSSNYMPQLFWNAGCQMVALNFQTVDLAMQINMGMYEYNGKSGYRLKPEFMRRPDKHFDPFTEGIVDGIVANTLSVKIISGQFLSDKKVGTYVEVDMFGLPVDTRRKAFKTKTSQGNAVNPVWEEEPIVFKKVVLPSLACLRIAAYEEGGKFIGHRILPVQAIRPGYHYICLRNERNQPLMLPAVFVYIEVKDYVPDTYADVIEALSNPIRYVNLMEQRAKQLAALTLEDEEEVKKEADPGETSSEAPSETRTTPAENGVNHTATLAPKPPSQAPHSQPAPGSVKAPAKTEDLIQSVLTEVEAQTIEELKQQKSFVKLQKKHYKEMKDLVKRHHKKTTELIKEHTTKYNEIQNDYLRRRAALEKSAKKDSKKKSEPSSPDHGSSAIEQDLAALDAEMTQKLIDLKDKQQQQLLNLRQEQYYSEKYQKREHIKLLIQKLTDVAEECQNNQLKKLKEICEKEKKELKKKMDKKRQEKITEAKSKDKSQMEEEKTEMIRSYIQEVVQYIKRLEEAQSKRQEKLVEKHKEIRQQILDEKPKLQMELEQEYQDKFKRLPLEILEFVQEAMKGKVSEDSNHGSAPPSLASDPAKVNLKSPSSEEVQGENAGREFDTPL

binding, binds:
FXR1, endogenous (from UniProt Q5XI81 1-568)
eIF3A, endogenous (from UniProt Q1JU68 1-1354)
eIF3B, endogenous (from UniProt Q4G061 1-797)
eIF3C, endogenous (from UniProt B5DFC8 1-911)
eukaryotic initiation factor 5A (eIF5A), endogenous (from UniProt Q3T1J1 1-154)

target: argonaute 2 (Ago2), endogenous (rat (endogenous in PC12 and A10)) (UniProt Q9QZ81); assay: affinity purification with mass spectrometry

binding, binds:
FXR1, endogenous (from UniProt Q5XI81 1-568)
